According to paper PMC7819943, “Rice protein-binding microarrays: a tool to detect cis-acting elements near promoter regions in rice”:
The other results are listed elsewhere or left out.

Amino acid sequences for entries named in this document (tags omitted).
UniProt Q0JBA9, entry or part of it: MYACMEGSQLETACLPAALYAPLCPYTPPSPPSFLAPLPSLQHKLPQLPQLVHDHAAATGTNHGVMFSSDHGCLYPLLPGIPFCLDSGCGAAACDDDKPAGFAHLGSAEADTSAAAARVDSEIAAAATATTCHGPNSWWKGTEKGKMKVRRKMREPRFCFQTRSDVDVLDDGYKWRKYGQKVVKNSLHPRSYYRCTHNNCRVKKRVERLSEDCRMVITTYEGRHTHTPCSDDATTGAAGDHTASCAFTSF

biological target: OsWRKY34 (Oryza sativa, UniProt Q0JBA9 1-250); assay: protein-binding microarray (RPBM); PBS, 2% BSA, 51.3 ng/ul salmon testes DNA, 50 uM zinc acetate, 200 nM TF, 25 C, 1 h; high values mean tight binding; settings: protein: recombinant; tags: N-terminal polyhistidine and DsRed monomer fusion (pET32a); label: CyDye5-dUTP incorporated in the synthesized complementary strand; 3' TTTTT single-stranded linker to array surface; dsDNA, one strand shown
Summary of the method: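 Transcription factors, each fused N-terminally to a polyhistidine tag and DsRed, were expressed in E. coli BL21-CodonPlus and purified on Ni–NTA. A custom Agilent array was made double-stranded by primer extension with Cy5-dUTP and blocked with 2% BSA. It was incubated with 200 nM protein in PBS, 2% BSA, salmon testes DNA and 50 µM zinc acetate at 25 °C for 1 h, then washed. The binding signal is per-feature fluorescence intensity (arbitrary units) read on an Axon 4000B scanner.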

| Sequence | binding signal |
| --- | --- |
| CTCGTCGCGGTCGCAGGGGCGGGGCAGCGTTGCCGCGTTCCGGAGTCACCTAGTGCAG | 10800 fluorescence intensity (a.u.) |
| TATCCAATCCATCCGATCCGTCCGTCCACATTCAAATCTCCGGAGTCACCTAGTGCAG | 10400 fluorescence intensity (a.u.) |
| ACCGGAGAAATCGTCGTCTCTCTCTGTCACCGGGGCCCGCCGGAGTCACCTAGTGCAG | 9360 fluorescence intensity (a.u.) |
| CCACTTTTGCAGATTGCAGGGCGCGCAGTACTGCCGACAGCGGAGTCACCTAGTGCAG | 18900 fluorescence intensity (a.u.) |
| TTGACTCCTCGCGCCTCACCTCGCCTCGCCTCCATTACATCGGAGTCACCTAGTGCAG | 10900 fluorescence intensity (a.u.) |
| CTCCTTGCAAGCATTTCTTGGGTTCTCTTTTCTTTTCTTTCGGAGTCACCTAGTGCAG | 12800 fluorescence intensity (a.u.) |
| GCCACCCGCCAGTCGCCGCGCACACGCATCGCCGTTCTTTCGGAGTCACCTAGTGCAG | 10800 fluorescence intensity (a.u.) |
| CTCCCATCCGATCACCTCCGTCCCGAACGTTATCTCTAACCGGAGTCACCTAGTGCAG | 9830 fluorescence intensity (a.u.) |
| CGTCGGTAGGGAGGAGGAGGAGGAGGAGGTGGTGGTGGTGCGGAGTCACCTAGTGCAG | 12000 fluorescence intensity (a.u.) |
| TGCATCTTCTCTTCTACCATTCTTGCTTTCTCCTTGTAGTCGGAGTCACCTAGTGCAG | 14700 fluorescence intensity (a.u.) |
| TGCTGGGTATTCTTTTTTAGGTGTTGTCAAGTTGTTTTTACGGAGTCACCTAGTGCAG | 9660 fluorescence intensity (a.u.) |
| TTGTGAGGATTTTTTACTTGTGTTGTGTTGTGTACTTGAACGGAGTCACCTAGTGCAG | 8760 fluorescence intensity (a.u.) |
| TAGCTCATATTTTGGCCCCTTCATTTCGCTGCCCTGTAAACGGAGTCACCTAGTGCAG | 9320 fluorescence intensity (a.u.) |
| TCTTGATGGGATTTTTTATACGACTCCTTCTGTATTCTCACGGAGTCACCTAGTGCAG | 9980 fluorescence intensity (a.u.) |
| GACCGAATGCCCACCCCTATCTACGGGCTTGATAATATCACGGAGTCACCTAGTGCAG | 10600 fluorescence intensity (a.u.) |
| TATATGTAAGCTACTTTTGTCCTATACATAAATTACTTTTCGGAGTCACCTAGTGCAG | 8580 fluorescence intensity (a.u.) |
| CTTACGATTGAGACATGCCAGCTACTACTCCCAATTCTTGCGGAGTCACCTAGTGCAG | 8460 fluorescence intensity (a.u.) |
| CTGTATCCCCATTCGCTGTCAAAATTCAATTCACTGTCTTCGGAGTCACCTAGTGCAG | 9640 fluorescence intensity (a.u.) |
| GGTATTTTAGTCTTCTGCACATCCATCGGTACGTTCTTTCCGGAGTCACCTAGTGCAG | 15600 fluorescence intensity (a.u.) |
| TCATCTCTCGTTCTTACACTATTACATCTTACAAATCAAACGGAGTCACCTAGTGCAG | 9340 fluorescence intensity (a.u.) |
| CATCCTACTCCCTCCGTCCCACAAAACCTGCCGTTTCACCCGGAGTCACCTAGTGCAG | 8520 fluorescence intensity (a.u.) |
| CGCACTTACACACACATTCGCTCCGGAGCGCAGTACGTGACGGAGTCACCTAGTGCAG | 8580 fluorescence intensity (a.u.) |
| ACCCTCCTCCCAACCACCCACGCCGTCCGATCCCCATCCGCGGAGTCACCTAGTGCAG | 8880 fluorescence intensity (a.u.) |
| TACCCCTCATGTTTTTCTTTCTTTATTTTTACAGCGGTTACGGAGTCACCTAGTGCAG | 8680 fluorescence intensity (a.u.) |
| TAAACACCACCTTTGTCTCTTCTTCTTCTTCCGCCGGCTTCGGAGTCACCTAGTGCAG | 10200 fluorescence intensity (a.u.) |
| AGCTGACTTTTGCTTCTTACTCCTACTACTACTACTTGTCCGGAGTCACCTAGTGCAG | 11000 fluorescence intensity (a.u.) |
| ACGAACTCCTCAAATATTGCGAATGCTTGTACTACGACTCCGGAGTCACCTAGTGCAG | 8190 fluorescence intensity (a.u.) |

| Sequence | binding signal |
| --- | --- |
| TAATCGCTAATCCTCGCGGTCCATCTGTACTGTACGCTTACGGAGTCACCTAGTGCAG | 8670 fluorescence intensity (a.u.) |
| TTTTTTTTCTTTTCTTCTGTTCCTGAATACTCTGTAGTTTCGGAGTCACCTAGTGCAG | 8470 fluorescence intensity (a.u.) |
| ATTAACTCCCTCTCCCGCTGCTCCACTCCACTCCCACACCCGGAGTCACCTAGTGCAG | 8110 fluorescence intensity (a.u.) |
| GCACATGTTTGACCGTTCGTCTTATTCAAAAATTTTTGTGCGGAGTCACCTAGTGCAG | 11100 fluorescence intensity (a.u.) |
| TGATCAGATCCCTCTCTATCTCGTTCCATTTCTATTATCTCGGAGTCACCTAGTGCAG | 9020 fluorescence intensity (a.u.) |
| CCGTTTTTTAATAGATAACGCTGTTGACTTTTTCTTATATCGGAGTCACCTAGTGCAG | 11200 fluorescence intensity (a.u.) |
| GCTTGCACCATGCCCGTTGCCTATTTGGCACTCCATGCCCCGGAGTCACCTAGTGCAG | 8240 fluorescence intensity (a.u.) |
| ATACTTCGTTAGGTCCTCTTGGTCAACCCGATATTGACAGCGGAGTCACCTAGTGCAG | 9780 fluorescence intensity (a.u.) |
| TATGTTTTTCCTATTCCTCCGTTTTTCCATTCCTATGATTCGGAGTCACCTAGTGCAG | 9810 fluorescence intensity (a.u.) |
| CTCGCGGGAGGGTGGGGTTGGAAGTTTCCTAGGGGCCCACCGGAGTCACCTAGTGCAG | 9870 fluorescence intensity (a.u.) |
| AAGTGTTTTCGTTTTTTTTTCATTCGCTATTATTTTCTTTCGGAGTCACCTAGTGCAG | 9660 fluorescence intensity (a.u.) |
| TACACCATTTTCTCTCACTTACATGTAGGCCCTACATATTCGGAGTCACCTAGTGCAG | 9050 fluorescence intensity (a.u.) |
| TCGCAGTTTCCTGACGGAATCTGTAATTTGTTTTGTTATTCGGAGTCACCTAGTGCAG | 8310 fluorescence intensity (a.u.) |
| GCGCTCCGTGTCCTCCTCGCGTCCTAATCCACACGTGTTCCGGAGTCACCTAGTGCAG | 12100 fluorescence intensity (a.u.) |
| GCCCCGACAAAGGCCGACGTCTCCTGCGCGGCCACGTCTCCGGAGTCACCTAGTGCAG | 8020 fluorescence intensity (a.u.) |
| CGTCGCCGCCCACCAAACCCGATCCCACCGCGCCGCGATGCGGAGTCACCTAGTGCAG | 11100 fluorescence intensity (a.u.) |
| CGACTTCCTTCTGCTCCTCTTTTTTCGTCGTCCTCCTCTCCGGAGTCACCTAGTGCAG | 8260 fluorescence intensity (a.u.) |
| CAGAGTTTTGTTTATGTTACATGCTTCACCATTCAGAAAGCGGAGTCACCTAGTGCAG | 8470 fluorescence intensity (a.u.) |
| ACACGGTCTCTGTCCTACCACAACCTGAACCGTATACTTACGGAGTCACCTAGTGCAG | 8190 fluorescence intensity (a.u.) |
| ACGCCCCATGTAAACATCTTCGATCACGTTATAAATTTTACGGAGTCACCTAGTGCAG | 8270 fluorescence intensity (a.u.) |
| AACATTTTCCTTCCGCTCTACTCAATCCTATCCATCACATCGGAGTCACCTAGTGCAG | 9020 fluorescence intensity (a.u.) |
| GATTTTGTTCTAGGAACATATATACGTCACTTTGTCATCTCGGAGTCACCTAGTGCAG | 8180 fluorescence intensity (a.u.) |
| TTAATTGATGAAGTTGTCTTGTGGGGTAGCAGCACTTTGACGGAGTCACCTAGTGCAG | 8320 fluorescence intensity (a.u.) |
| CTGCCGGAGAGAGAGAGGGAGGGTGAGGGGTCGCGCGCGCCGGAGTCACCTAGTGCAG | 8480 fluorescence intensity (a.u.) |
| CTACTGTTTTACTTCTAAATGTTTGCTAAATGCTGCTTTTCGGAGTCACCTAGTGCAG | 8200 fluorescence intensity (a.u.) |
| CGATGCGCGACCTCGCCCGCCGCCACGGCCCGCTCATGCTCGGAGTCACCTAGTGCAG | 8410 fluorescence intensity (a.u.) |
| CTCCCTCCATCCCAAAATGTTTGACGCCGTTGACTTTTTACGGAGTCACCTAGTGCAG | 15900 fluorescence intensity (a.u.) |

Reformatted with tabs: part of the list above.
Sequence	binding signal
CTCCTTGCAAGCATTTCTTGGGTTCTCTTTTCTTTTCTTTCGGAGTCACCTAGTGCAG	12800 fluorescence intensity (a.u.)
GCCACCCGCCAGTCGCCGCGCACACGCATCGCCGTTCTTTCGGAGTCACCTAGTGCAG	10800 fluorescence intensity (a.u.)
CTCCCATCCGATCACCTCCGTCCCGAACGTTATCTCTAACCGGAGTCACCTAGTGCAG	9830 fluorescence intensity (a.u.)
CGTCGGTAGGGAGGAGGAGGAGGAGGAGGTGGTGGTGGTGCGGAGTCACCTAGTGCAG	12000 fluorescence intensity (a.u.)
TGCATCTTCTCTTCTACCATTCTTGCTTTCTCCTTGTAGTCGGAGTCACCTAGTGCAG	14700 fluorescence intensity (a.u.)
TGCTGGGTATTCTTTTTTAGGTGTTGTCAAGTTGTTTTTACGGAGTCACCTAGTGCAG	9660 fluorescence intensity (a.u.)
TTGTGAGGATTTTTTACTTGTGTTGTGTTGTGTACTTGAACGGAGTCACCTAGTGCAG	8760 fluorescence intensity (a.u.)
TAGCTCATATTTTGGCCCCTTCATTTCGCTGCCCTGTAAACGGAGTCACCTAGTGCAG	9320 fluorescence intensity (a.u.)
TCTTGATGGGATTTTTTATACGACTCCTTCTGTATTCTCACGGAGTCACCTAGTGCAG	9980 fluorescence intensity (a.u.)
GACCGAATGCCCACCCCTATCTACGGGCTTGATAATATCACGGAGTCACCTAGTGCAG	10600 fluorescence intensity (a.u.)
TATATGTAAGCTACTTTTGTCCTATACATAAATTACTTTTCGGAGTCACCTAGTGCAG	8580 fluorescence intensity (a.u.)
CTTACGATTGAGACATGCCAGCTACTACTCCCAATTCTTGCGGAGTCACCTAGTGCAG	8460 fluorescence intensity (a.u.)
CTGTATCCCCATTCGCTGTCAAAATTCAATTCACTGTCTTCGGAGTCACCTAGTGCAG	9640 fluorescence intensity (a.u.)
GGTATTTTAGTCTTCTGCACATCCATCGGTACGTTCTTTCCGGAGTCACCTAGTGCAG	15600 fluorescence intensity (a.u.)
TCATCTCTCGTTCTTACACTATTACATCTTACAAATCAAACGGAGTCACCTAGTGCAG	9340 fluorescence intensity (a.u.)
CATCCTACTCCCTCCGTCCCACAAAACCTGCCGTTTCACCCGGAGTCACCTAGTGCAG	8520 fluorescence intensity (a.u.)
